Measurements: article PMC6389929

The chains behind the UniProt entries cited, without tags or fusion partners. Where a name states a change or a piece, a line headed by the entry shows the natural chain unless it says otherwise.
UniProt Q93009: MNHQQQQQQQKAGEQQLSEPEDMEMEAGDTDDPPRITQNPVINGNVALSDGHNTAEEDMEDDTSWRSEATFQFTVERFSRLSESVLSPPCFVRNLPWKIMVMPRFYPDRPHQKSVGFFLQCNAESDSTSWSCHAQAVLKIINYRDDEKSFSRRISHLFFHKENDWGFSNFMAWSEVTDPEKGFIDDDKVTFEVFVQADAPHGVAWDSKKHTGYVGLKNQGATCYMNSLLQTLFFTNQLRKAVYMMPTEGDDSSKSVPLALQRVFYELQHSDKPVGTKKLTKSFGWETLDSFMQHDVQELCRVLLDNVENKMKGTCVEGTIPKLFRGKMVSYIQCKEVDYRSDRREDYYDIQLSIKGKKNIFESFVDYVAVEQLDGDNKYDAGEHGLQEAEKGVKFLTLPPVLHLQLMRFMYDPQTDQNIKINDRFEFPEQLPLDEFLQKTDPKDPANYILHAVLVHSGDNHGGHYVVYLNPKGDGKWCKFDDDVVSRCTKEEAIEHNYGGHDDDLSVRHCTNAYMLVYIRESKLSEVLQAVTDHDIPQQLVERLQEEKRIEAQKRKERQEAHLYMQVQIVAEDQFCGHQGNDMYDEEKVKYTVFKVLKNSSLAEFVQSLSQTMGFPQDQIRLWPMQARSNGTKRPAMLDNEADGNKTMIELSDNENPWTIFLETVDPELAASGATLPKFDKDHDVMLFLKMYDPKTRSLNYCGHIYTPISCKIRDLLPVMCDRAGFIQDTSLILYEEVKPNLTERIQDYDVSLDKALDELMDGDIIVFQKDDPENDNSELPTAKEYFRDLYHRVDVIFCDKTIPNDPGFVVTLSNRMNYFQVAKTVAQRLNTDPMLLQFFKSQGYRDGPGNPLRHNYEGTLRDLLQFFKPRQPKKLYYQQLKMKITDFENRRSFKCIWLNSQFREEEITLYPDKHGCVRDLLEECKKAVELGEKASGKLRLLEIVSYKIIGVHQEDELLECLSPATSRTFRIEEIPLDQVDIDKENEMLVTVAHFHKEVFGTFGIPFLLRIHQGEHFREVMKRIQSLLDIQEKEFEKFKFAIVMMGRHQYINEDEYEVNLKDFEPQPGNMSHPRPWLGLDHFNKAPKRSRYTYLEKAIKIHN

Molecular target: T1, FLAG-tagged FBXO38 (WT) (UniProt Q6PIJ6)
T1 sequence: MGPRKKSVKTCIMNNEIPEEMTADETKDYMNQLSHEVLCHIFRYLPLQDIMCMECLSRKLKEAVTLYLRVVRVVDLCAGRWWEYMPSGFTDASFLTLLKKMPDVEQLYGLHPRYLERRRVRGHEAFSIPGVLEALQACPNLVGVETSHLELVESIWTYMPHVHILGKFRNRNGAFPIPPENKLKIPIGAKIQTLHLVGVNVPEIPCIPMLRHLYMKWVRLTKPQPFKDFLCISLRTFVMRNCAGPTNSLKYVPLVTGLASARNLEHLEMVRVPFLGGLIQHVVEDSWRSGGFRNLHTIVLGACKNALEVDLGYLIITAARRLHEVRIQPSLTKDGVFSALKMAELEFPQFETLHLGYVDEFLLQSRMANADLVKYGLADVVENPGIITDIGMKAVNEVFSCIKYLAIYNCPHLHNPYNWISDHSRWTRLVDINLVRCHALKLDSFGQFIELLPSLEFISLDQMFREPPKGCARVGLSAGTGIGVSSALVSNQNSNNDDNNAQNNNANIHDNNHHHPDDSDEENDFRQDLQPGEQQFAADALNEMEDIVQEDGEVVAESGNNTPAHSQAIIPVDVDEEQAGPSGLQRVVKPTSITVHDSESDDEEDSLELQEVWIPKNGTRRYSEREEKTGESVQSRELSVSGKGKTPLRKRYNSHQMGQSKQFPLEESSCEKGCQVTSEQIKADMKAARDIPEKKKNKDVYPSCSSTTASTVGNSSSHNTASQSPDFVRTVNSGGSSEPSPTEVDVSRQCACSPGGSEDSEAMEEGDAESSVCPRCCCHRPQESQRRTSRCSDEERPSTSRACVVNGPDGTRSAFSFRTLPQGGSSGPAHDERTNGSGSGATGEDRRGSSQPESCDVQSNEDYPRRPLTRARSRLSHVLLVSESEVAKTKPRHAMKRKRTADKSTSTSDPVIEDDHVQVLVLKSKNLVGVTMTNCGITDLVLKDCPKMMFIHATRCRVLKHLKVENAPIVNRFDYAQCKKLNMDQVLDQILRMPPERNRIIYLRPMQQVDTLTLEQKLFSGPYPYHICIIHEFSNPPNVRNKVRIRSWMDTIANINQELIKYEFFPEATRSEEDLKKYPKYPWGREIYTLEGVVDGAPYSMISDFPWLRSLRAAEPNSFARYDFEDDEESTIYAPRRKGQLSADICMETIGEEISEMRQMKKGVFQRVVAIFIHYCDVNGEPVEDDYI
Test: co-IP; HEK293T cells co-transfected with FLAG-FBXO38 and myc-USP7 constructs; RIPA buffer; M2 anti-FLAG resin overnight at 4 °C; Western blot for FLAG and myc

myc-USP7 double pocket mutant (DW/Ubl2) (from UniProt Q93009) (enzyme)
binding: no binding

Results are given in words; binding and its absence hold for the method and conditions named. Binding seen in cells or lysates may run through a third protein. Where a sequence is shown, tags or fusion partners need not be part of it.
